# Counter-ions that a name gives are not always drawn. Some of the results follow. Most entries show no effect beyond the scatter of the controls.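 Melting temperature was read by differential scanning fluorimetry in a single-replicate pilot screen of a library of approved drugs and clinical or known-target compounds. Compounds raising the melting point by at least 2 °C were the top stabilizing hits, and negative shifts mean destabilization.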
# System: SARS-CoV-2 main protease (Mpro, nsp5)
# Assay: thermal shift ΔTm of Mpro relative to plate average Tm; higher = stronger thermal stabilization of Mpro (binding)
# Conditions: 10 µM; protein concentration 1 µM
row,Structure (SMILES),thermal shift ΔTm of Mpro
1,O=C(O)CCCC[C@@H]1SC[C@@H]2NC(=O)N[C@@H]21 [Biotin (Vitamin B7)],0.178 °C
2,CCOc1cc(C(C)(C)C)ccc1C1=N[C@@](C)(c2ccc(Cl)cc2)[C@@](C)(c2ccc(Cl)cc2)N1C(=O)N1CCN(CCCS(C)(=O)=O)CC1,-0.289 °C
3,CCOC(=O)Nc1ccc(NCc2ccc(F)cc2)nc1N [Flupirtine maleate],0.267 °C
4,COCC(=O)Nc1c(I)c(C(=O)NCC(O)CO)c(I)c(C(=O)N(C)CC(O)CO)c1I (centres undefined) [Iopromide],0.138 °C
5,O=C(/C=C/N1C[C@H]2C[C@@H]1CN2c1ccccn1)c1ccccc1O,-0.181 °C
6,COc1ccc(C(CN(C)C)C2(O)CCCCC2)cc1 (centres undefined) [Venlafaxine],0.242 °C
7,Cc1cc(O)c(-c2ccc([C@@H](C)CN(C)C)cc2)c2c1[nH]c(=O)c1sccc12,-0.132 °C
8,C[C@H](CCC(=O)O)[C@H]1CC[C@H]2[C@@H]3CC[C@@H]4C[C@H](O)CC[C@]4(C)[C@H]3CC[C@]12C [Lithocholic acid],-0.48 °C
9,N[C@@H](CSCCCO)C(=O)O [Fudosteine],0.176 °C
10,O=C(Oc1ccc([N+](=O)[O-])cc1)N1CCN(Cc2cccc(Oc3ccccc3)c2)CC1,0.0465 °C
11,CC(=O)SCC(Cc1ccccc1)C(=O)NCC(=O)OCc1ccccc1 (centres undefined) [Racecadotril],0.0891 °C
12,COC(=O)C1=C(C)NC(C)=C(C(=O)OC(C)C)C1c1cccc2nonc12 (centres undefined) [Isradipine],0.0658 °C
13,O=C1OC(OC(=O)c2cccnc2Nc2cccc(C(F)(F)F)c2)c2ccccc21 (centres undefined) [Talniflumate],0.00733 °C
14,CCNC(=O)[C@@H]1CCCN1C(=O)[C@H](CCCN=C(N)N)NC(=O)[C@H](CC(C)C)NC(=O)[C@@H](C)NC(=O)[C@H](Cc1ccc(O)cc1)NC(=O)[C@H](CO)NC(=O)[C@H](Cc1c[nH]c2ccccc12)NC(=O)[C@H](Cc1cnc[nH]1)NC(=O)[C@@H]1CCC(=O)N1 [Alarelin],0.263 °C
15,COc1cc(Oc2ccnc3cc(OC)c(OC)cc23)ccc1NC(=O)NC(C)c1nccs1 (centres undefined),-0.182 °C
16,Cn1c(Nc2ccc(C(F)(F)F)cc2)nc2cc(Oc3ccnc(-c4ncc(C(F)(F)F)[nH]4)c3)ccc21,0.654 °C
17,O=C(NO)c1ccc(CC(=O)N(CCO)c2ccccc2)cc1,-0.0394 °C
18,Cc1cc(C)nc(NC(=S)N2CCN(Cc3ccc(C(F)(F)F)cc3)CC2)c1,-0.202 °C
19,O=C(Nc1ccccc1Br)N[C@@H]1CCN(c2ccc(C(F)(F)F)cn2)C1,0.0887 °C
20,Cc1ccccc1C(C(=O)NC1CCCCC1)N(C(=O)Cn1cnc2ccccc21)c1cccc(F)c1 (centres undefined),-0.299 °C
21,COc1ccc(S(=O)(=O)N(CCO)c2ccccc2CN(C)C/C=C/c2ccc(Cl)cc2)cc1 [KN-93 Phosphate],-0.328 °C
22,Cc1ccc2nc(N)[nH]c(=O)c2c1Sc1ccncc1 [Nolatrexed],-0.0305 °C
23,CC(C)c1c(-c2ccccc2)nc2c(C#N)c[nH]n2c1=O,-0.11 °C
24,CN(C)CC(c1ccc(O)cc1)C1(O)CCCCC1 (centres undefined) [Desvenlafaxine Succinate],-0.189 °C
25,CN(C)CC(c1ccc(O)cc1)C1(O)CCCCC1 (centres undefined) [Desvenlafaxine],-0.11 °C

# Already shown: an excerpt of the list.
row,Structure (SMILES),thermal shift ΔTm of Mpro
15,COc1cc(Oc2ccnc3cc(OC)c(OC)cc23)ccc1NC(=O)NC(C)c1nccs1 (centres undefined),-0.182 °C
16,Cn1c(Nc2ccc(C(F)(F)F)cc2)nc2cc(Oc3ccnc(-c4ncc(C(F)(F)F)[nH]4)c3)ccc21,0.654 °C
17,O=C(NO)c1ccc(CC(=O)N(CCO)c2ccccc2)cc1,-0.0394 °C

# (continued)

row,Structure (SMILES),thermal shift ΔTm of Mpro
1,O=C(NOCC(O)CO)c1cc(Br)c(F)c(F)c1Nc1ccc(I)cc1F (centres undefined),0.0183 °C
2,NC(=O)[C@@H]1CCCN1C(=O)[C@H](Cc1c[nH]cn1)NC(=O)[C@@H]1CCC(=O)N1 [Protirelin],0.304 °C
3,O=C(O)COc1ccc(Br)cc1/C=C1\SC(=S)N(Cc2cccnc2)C1=O [Skp2 Inhibitor C1],-0.0658 °C
4,O=C(C[S+]([O-])Cc1ccco1)NC/C=C\COc1cc(CN2CCCCC2)ccn1 (centres undefined) [Lafutidine],0.0981 °C
5,NC(=N\CCCCCC/N=C(N)/N=C(\N)Nc1ccc(Cl)cc1)/N=C(\N)Nc1ccc(Cl)cc1 [Chlorhexidine Acetate],0.231 °C
6,C#CCC(Cc1cnc2nc(N)nc(N)c2n1)c1ccc(C(=O)N[C@@H](CCC(=O)O)C(=O)O)cc1 (some centres undefined) [Pralatrexate],0.593 °C
7,COc1c(N2CCNC(C)C2)c(F)cc2c(=O)c(C(=O)O)cn(C3CC3)c12 (centres undefined) [Gatifloxacin],0.0263 °C
8,O=C(c1ccccc1)c1ccc2n1CCC2C(=O)O (centres undefined) [Ketorolac],-0.0435 °C
9,CCN(CC)CCCC(C)Nc1nc(C)cc(Nc2ccc3nc(C)cc(N)c3c2)n1 (centres undefined),-0.178 °C
10,CN(C)C/C=C/C(=O)Nc1cc2c(Nc3ccc(F)c(Cl)c3)ncnc2cc1O[C@H]1CCOC1 [Afatinib (BIBW2992)],0.13 °C
11,CN(C)C/C=C/C(=O)Nc1cc2c(Nc3ccc(F)c(Cl)c3)ncnc2cc1O[C@H]1CCOC1 [Afatinib (BIBW2992) Dimaleate],0.288 °C
12,FC(F)(F)COCC(F)(F)F [Fluoroethyl],0.195 °C
13,O=C(Nc1ccccc1)Nc1ccc(-c2ccc(C(=O)[C@@H]3CCC[C@H]3C(=O)O)cc2)cc1,0.743 °C
14,OC[C@@H](O)[C@@H](O)[C@@H](O)CO [Ribitol],-0.00813 °C
15,CCN[C@@H]1C[C@H](N)[C@@H](O[C@H]2OC(CN)=CC[C@H]2N)[C@H](O)[C@H]1O[C@H]1OC[C@](C)(O)[C@H](NC)[C@H]1O [Netilmicin sulfate],0.13 °C
16,O=C1NC(=O)C(=Cc2ccc(-c3ccc(F)cc3)o2)S1 (stereo in doubt),0.41 °C
17,CC(C)(O)c1ccccc1CC[C@@H](SCC1(CC(=O)O)CC1)c1cccc(/C=C/c2ccc3ccc(Cl)cc3n2)c1 [Montelukast Sodium],-0.0297 °C
18,O=C1NC(=O)C(c2ccccc2)(c2ccccc2)N1 [Phenytoin],0.287 °C
19,NC(N)=NCCC[C@H](N)C(=O)NCC(=O)N[C@@H](CC(=O)O)C(=O)O,-0.0745 °C
20,CCN1CC2(OC(=O)c3ccccc3NC(C)=O)CCC(OC)C34C1C(CC23)C1(O)CC(OC)C2CC4C1(O)C2OC (centres undefined) [Lappaconite HBr],-0.0383 °C
21,CCNC(=O)/C=C/c1cccc(Br)c1 [Cinromide],0.0457 °C
22,C=CCCCCCCCCC(=O)[O-].C=CCCCCCCCCC(=O)[O-].[Zn+2] [Zinc undecylenate],0.0768 °C
23,COC(=O)Nc1nc2cc([S+]([O-])c3ccccc3)ccc2[nH]1 (centres undefined) [Oxfendazole],0.0118 °C
24,Cc1c(CN(C)C(=O)/C=C/c2cnc3c(c2)CCC(=O)N3)oc2ccccc12,-0.0336 °C

# Source: the supplement of paper PMC8166895
